No constants are given. Whether binding was seen depends on the method and setting. For part of these data: Binding seen in cells or lysates may run through a third protein. Some entries that bind do so weakly or less than the wild type.
Key:
[1] = biological target: hydroxyacyl-CoA dehydrogenase trifunctional multienzyme complex subunit alpha (mouse (endogenous in A9, 4A and 4AR6 cells)) (UniProt Q8BMS1); assay: co-IP; purified mitochondria of 4AR6 cells, 1% digitonin; anti-HADHA antibody overnight at 4 °C, protein G agarose beads; western blot
[2] = biological target: hydroxyacyl-CoA dehydrogenase trifunctional multienzyme complex subunit alpha (mouse (endogenous in A9, 4A and 4AR6 cells)) (UniProt Q8BMS1); assay: co-IP; purified mitochondria of 4A cells (control: no complete complex I, no supercomplexes), 1% digitonin; anti-HADHA antibody overnight at 4 °C, protein G agarose beads; western blot
[3] = biological target: hydroxyacyl-CoA dehydrogenase trifunctional multienzyme complex subunit alpha (mouse (endogenous in A9, 4A and 4AR6 cells)) (UniProt Q8BMS1); assay: native gel or EMSA; BN-PAGE (comigration) of digitonin-solubilised mitochondria of A9 and 4AR6 cells, western blot
[4] = biological target: hydroxyacyl-CoA dehydrogenase trifunctional multienzyme complex subunit alpha (mouse (endogenous in A9, 4A and 4AR6 cells)) (UniProt Q8BMS1); assay: co-IP; purified mitochondria of 4AR6 cells, 1% digitonin; anti-HADHA antibody overnight at 4 °C, protein G agarose beads; western blot; remark: listed apart in the source
[5] = biological target: hydroxyacyl-CoA dehydrogenase trifunctional multienzyme complex subunit alpha (mouse (endogenous in A9, 4A and 4AR6 cells)) (UniProt Q8BMS1); assay: co-IP; purified mitochondria of 4A cells (control: no complete complex I, no supercomplexes), 1% digitonin; anti-HADHA antibody overnight at 4 °C, protein G agarose beads; western blot; remark: listed apart in the source

The chains behind the UniProt entries cited, without tags or fusion partners. Residues count along the entry.
UniProt Q8BMS1, residues 37-763: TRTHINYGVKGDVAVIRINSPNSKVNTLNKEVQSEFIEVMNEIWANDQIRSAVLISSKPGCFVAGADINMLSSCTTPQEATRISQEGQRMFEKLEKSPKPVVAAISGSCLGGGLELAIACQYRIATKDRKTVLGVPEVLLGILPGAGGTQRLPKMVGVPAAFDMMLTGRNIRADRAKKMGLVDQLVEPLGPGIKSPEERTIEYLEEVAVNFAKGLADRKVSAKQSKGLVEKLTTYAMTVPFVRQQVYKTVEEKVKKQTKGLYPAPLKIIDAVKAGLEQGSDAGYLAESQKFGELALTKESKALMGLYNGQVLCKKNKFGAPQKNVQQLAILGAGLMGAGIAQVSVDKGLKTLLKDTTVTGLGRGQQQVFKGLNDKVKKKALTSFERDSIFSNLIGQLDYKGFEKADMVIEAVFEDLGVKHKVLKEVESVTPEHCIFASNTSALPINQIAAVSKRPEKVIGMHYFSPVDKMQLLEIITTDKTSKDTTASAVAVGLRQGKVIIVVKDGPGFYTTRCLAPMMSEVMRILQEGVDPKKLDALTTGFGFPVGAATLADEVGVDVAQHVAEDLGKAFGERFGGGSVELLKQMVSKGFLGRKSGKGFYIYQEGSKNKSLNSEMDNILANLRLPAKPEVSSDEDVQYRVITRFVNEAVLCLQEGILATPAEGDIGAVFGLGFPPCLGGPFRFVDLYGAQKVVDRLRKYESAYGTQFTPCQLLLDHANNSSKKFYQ
UniProt P03911: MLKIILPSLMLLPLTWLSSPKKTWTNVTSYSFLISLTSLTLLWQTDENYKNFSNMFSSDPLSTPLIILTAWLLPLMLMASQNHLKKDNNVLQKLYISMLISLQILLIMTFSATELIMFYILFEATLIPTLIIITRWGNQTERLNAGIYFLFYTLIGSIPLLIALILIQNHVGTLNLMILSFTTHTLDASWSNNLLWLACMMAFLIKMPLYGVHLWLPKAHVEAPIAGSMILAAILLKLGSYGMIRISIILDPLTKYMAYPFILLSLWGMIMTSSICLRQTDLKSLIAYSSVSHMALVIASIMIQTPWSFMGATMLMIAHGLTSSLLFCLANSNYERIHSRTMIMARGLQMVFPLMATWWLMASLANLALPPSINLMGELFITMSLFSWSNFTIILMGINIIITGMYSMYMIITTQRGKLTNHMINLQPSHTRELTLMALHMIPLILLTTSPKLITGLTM
UniProt Q03265, residues 44-553: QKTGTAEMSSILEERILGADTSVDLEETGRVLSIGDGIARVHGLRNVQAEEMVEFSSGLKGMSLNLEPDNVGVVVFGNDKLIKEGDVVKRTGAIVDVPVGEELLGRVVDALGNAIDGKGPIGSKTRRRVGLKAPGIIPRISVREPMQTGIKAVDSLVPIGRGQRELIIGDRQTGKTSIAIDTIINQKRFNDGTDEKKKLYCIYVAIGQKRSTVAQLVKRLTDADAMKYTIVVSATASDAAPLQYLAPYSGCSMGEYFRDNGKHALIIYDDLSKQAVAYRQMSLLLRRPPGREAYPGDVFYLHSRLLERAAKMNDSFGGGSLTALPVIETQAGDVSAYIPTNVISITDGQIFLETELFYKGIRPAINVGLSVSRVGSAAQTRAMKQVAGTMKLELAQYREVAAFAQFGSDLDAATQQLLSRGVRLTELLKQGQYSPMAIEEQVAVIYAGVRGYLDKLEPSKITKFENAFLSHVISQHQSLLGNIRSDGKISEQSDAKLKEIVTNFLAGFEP

Row | Molecule | binding [1] | binding [2] | binding [3] | binding [4] | binding [5]
1 | complex I membrane arm subunit ND4 (from UniProt P03911 1-459) | binds | binds |  |  | 
2 | complex V subunit ATP5A (from UniProt Q03265 44-553) | no binding | no binding |  |  | 
3 | mitochondrial trifunctional protein subunit beta (protein, UniProt Q99JY0 35-475) SAPAVQTKSKKTLAKPNMKNIVVVEGVRIPFLLSGTSYKDLMPHDLARAALSGLLHRTNIPKDVVDYIIFGTVIQEVKTSNVAREAALGAGFSDKTPAHTVTMACISSNQAMTTAVGLIASGQCDVVVAGGVELMSDVPIRHSRNMRKMMLDLNKAKTLGQRLSLLSKFRLNFLSPELPAVAEFSTNETMGHSADRLAAAFAVSRMEQDEYALRSHSLAKKAQDEGHLSDIVPFKVPGKDTVTKDNGIRPSSLEQMAKLKPAFIKPYGTVTAANSSFLTDGASAMLIMSEDRALAMGYKPKAYLRDFIYVSQDPKDQLLLGPTYATPKVLEKAGLTMNDIDAFEFHEAFSGQILANFKAMDSDWFAQNYMGRKTKVGSPPLEKFNIWGGSLSLGHPFGATGCRLVMAAANRLRKDGGQYALVAACAAGGQGHAMIVEAYPK |  |  | binds | binds | binds
4 | complex I membrane arm subunit ND2 (protein, UniProt P03893 1-345) MNPITLAIIYFTIFLGPVITMSSTNLMLMWVGLEFSLLAIIPMLINKKNPRSTEAATKYFVTQATASMIILLAIVLNYKQLGTWMFQQQTNGLILNMTLMALSMKLGLAPFHFWLPEVTQGIPLHMGLILLTWQKIAPLSILIQIYPLLNSTIILMLAITSIFMGAWGGLNQTQMRKIMAYSSIAHMGWMLAILPYNPSLTLLNLMIYIILTAPMFMALMLNNSMTINSISLLWNKTPAMLTMISLMLLSLGGLPPLTGFLPKWIIITELMKNNCLIMATLMAMMALLNLFFYTRLIYSTSLTMFPTNNNSKMMTHQTKTKPNLMFSTLAIMSTMTLPLAPQLIT |  |  |  | binds | binds

— publication PMC11653673
